Experimental data published in PMC9851907, “A single 2′-O-methylation of ribosomal RNA gates assembly of a functional ribosome” (Nature Structural & Molecular Biology, 2022).
These are yes or no findings as the source states them, for the method shown. In cells and extracts the contact can be indirect. Here binding means that the protein was enriched with, or labelled near, the bait; the list need not be complete.

Chains of the proteins cited; added tags and fusions are not shown.
UniProt P53742: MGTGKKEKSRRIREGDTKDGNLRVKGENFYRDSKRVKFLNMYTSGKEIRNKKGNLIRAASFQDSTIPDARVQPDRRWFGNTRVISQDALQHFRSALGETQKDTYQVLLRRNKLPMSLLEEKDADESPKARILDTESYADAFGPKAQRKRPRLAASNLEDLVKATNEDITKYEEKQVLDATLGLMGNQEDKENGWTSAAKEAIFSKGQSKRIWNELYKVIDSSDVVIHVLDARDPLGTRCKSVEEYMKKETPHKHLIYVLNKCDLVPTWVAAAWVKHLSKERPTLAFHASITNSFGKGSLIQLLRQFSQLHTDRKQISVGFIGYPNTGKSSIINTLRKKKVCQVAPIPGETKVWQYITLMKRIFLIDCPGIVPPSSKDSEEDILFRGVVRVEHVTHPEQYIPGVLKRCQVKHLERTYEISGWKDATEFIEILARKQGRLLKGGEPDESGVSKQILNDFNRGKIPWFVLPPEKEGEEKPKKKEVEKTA

B1: Sda1 (protein, UniProt P53313 1-767)
chain: MGRRSRAAMLPTNIILLQNLVKRDPESYQEEFLQQYAHYESLRDIFMLNGLAGGDSAAATNGLDVGNGSSTMAGTNGTTMSTSTSQLIELVGFVSQVCSCFPRETANFPSELKQLLLEHHKSLPFELKEKILSCLTMLRNKDVITAEELIQSLFPLLVAYSSHGNSLGVNSHAKELRKIIYTNLISLLKSCNTNGKNQKLNKSTQAVCFNLLDQPDSQGIWATKLTRELWRRGIWDDSRTVEIMTQAALHQDVKIVMSGVMFFLDADREREENFEENSEDEDGFDLDALRHKMQVNKKTGRRGKKLENAIKTVKKKKKNGPGAPQGYLNFSAIHLLRDPQGFAEKLFKEHLSGKTKNKFDMEQKISLMQLLSRLIGTHKLIVLGIYTFFLKYLTPKQRDVTRIMSACAQACHDLVPPEVINVMVRKIADEFVSDGVANEVAAAGINTIREICSRAPLAIDEILLQDLVEYKGSKAKGVNMAAKSLIALYRDVAPEMLKKKDRGKNAAMEVQEAKKGGKDSKRPQFGADNSVQGIAGIELLAKWKKEHGEESENEDADANWEVDVDSEEDDVDGEWVTMDSDKEYDVDMEDSDDEKDNAKGKESDSDLELSDDDDEKEVKDEQEDADIDPEAAFREIASTRILTPADFAKLQELRNEESVAKIMGIHKQDKREELVDASTLTGPIKYKQSREERLQKVLEGREGRDKFGSRRGKRDNMRSTTNREKERRKNFVMSIHKRSVRGKQKMSLRDKQKVLRAHITKQKKKGY
B2: Arx1 (protein, UniProt Q03862 1-593)
chain: MALAISHEDTQILLKDKNILQESVLNKYRTAGQIAQTALKYVTSLINDSYHSKTTQRQLTVPELCLLTDSFILTRLEQYYKNKVNERGIAIPTTIDIDQISGGWCPEIDDTQNLLNWNKGKDSTFASSVTGTLRPGDLVKITLGVHIDGYTSEVSHTMVIYPVDETKPILQPTGPLLGGKADAVAAAHIAMETVVALLACALTPEKLPASLGGTSSGITGQLIRTIVDTIARSYNCGVVPGSRVRRIRRFLAGQNEGIVAEREYKGVVWTESHQEADLLSNTDAKDLTVVDRGQSTPFTNVSAIPSDDFVVQSGEVYLIDLKMASLEHCTKKGLVTLETVDSYTGKSHKAGELIARPGAYVRDFAQTHILKLKTSRQLLTKIDKQGVYPFKLSHLSSNFPFVHENEEELQSLKKDLKSFRLGMSEISNNYLCVESPIQIARWVPWDHILKATNPNGNLSYDATSTLTLPGHELPLPKLGVSAIKLKSLMNSTKESISLPVARECNTIVLCDSSVSTTDRPELLRLTGGSKTCQPSWIHSQHELNPQDSIVQGIFQLATLAKDKRFGLLLKETQPMKQKSVETSNGGVEETMKM
B3: Bud20 (protein, UniProt Q08004 1-166)
chain: MGRYSVKRYKTKRRTRDLDLIYNDLSTKESVQKLLNQPLDETKPGLGQHYCIHCAKYMETAIALKTHLKGKVHKRRVKELRGVPYTQEVSDAAAGYNLNKFLNRVQEITQSVGPEKESNEALLKEHLDSTLANVKTTEPTLPWAAADAEANTAAVTEAESTASAST

Biological target: Nog2-3xFLAG-6xHis (S. cerevisiae (endogenous locus in BY4741-derived strain AJY4427)) (UniProt P53742)
Assay: affinity purification with mass spectrometry; Nog2-3xFLAG-bound pre-60S particles immunopurified on anti-FLAG agarose from lysates of yeast expressing WT SPB1 or spb1-D52A (endogenous Spb1 depleted); 50 mM Tris pH 7.6, 100 mM NaCl, 5 mM MgCl2, 0-4 °C; eluted with 3xFLAG peptide; semiquantitative MS-MS of gel samples; partners are together within a ribonucleoprotein particle

binding, binds:
B1
B2
B3
